Data published in US20180368393A1, “PRE- AND POST-STORAGE STRESS RESPONSE CONDITIONING” (CPSI HOLDINGS LLC, priority 2017, published 2018).
Some of these results come from one statement about several compounds together. At least one compound was matched to its structure with a doubt left.

System: human endothelial cells
Assay: Human endothelial cell monolayer survival and repopulation following cryopreservation (Calcein-AM assay)
Assay type: cell-based
Conditions: P/P conditioning with NAC, salubrinal or resveratrol; U10G10
Procedure: A series of cryopreservation experiments was conducted on human endothelial and smooth muscle cell suspensions and monolayers to assess the performance of four (4) commercially available cryopreservation solutions: DP6, VS55, VS83, and M22, as well as nine (9) additional solutions: […] Eurocollins (EC) solution was included as a negative control, i.e., no cryoprotective agent (CPA) control, while media+10% DMSO ([…]) is a typical solution (10% DMSO) used in standard controlled rate cryopreservation protocols known to the skilled individual. Unisol is representative of the class of intracellular-like or intracellular-type solutions/media, whereas EC solution and culture media are representative of the class of extracellular-like or extracellular-type solutions/media. […] Following thawing, samples were diluted in culture media, placed into culture and assessed for viability at 1 day (24 hours) post-thaw and following seven (7) days of recovery using the Calcein-AM assay. […] As with the viability studies, cell survival and repopulation were assessed using Calcein-AM assays and analyzed using fluorescent microscopy (Zeiss). Survival was determined at 24 hours post-thaw to allow for the manifestation of any delayed onset cell death pathways to be executed. […]

SMILES: CC(=O)N[C@@H](CS)C(=O)O [NAC, n-acetyl cysteine]
- survival: > 50%
